# Test results: PubChem BioAssay AID248 (DTP/NCI, 2004)
# The list is a part of this screen's results and no random one: it is rich in T/C values a quarter to a half above the control, in often repeated tests (any T/C) and in doses without a T/C. Other doses and runs of a compound stand elsewhere. T/C gives the treated animals as a percentage of the vehicle group. Some doses have a count of surviving animals in place of a T/C: the source holds a T/C of zero for them, seemingly a mark for toxic or unscored doses. Some survivor counts are full or nearly so, which does not show that the dose was tolerated: the source hardly ever lists a survival T/C far under the control, and the zero likely stands for such cases as well. Survivors were counted at the toxicity check, usually on the fifth day, unless a day is given; later deaths do not show. Schedule codes are those of the source, taken here to give the interval after Q, in days (D) or hours (H), and the number of doses after X. Some entries hold several experiments; their values stand side by side, smallest first. Some schedule codes hold Z or #, which are not explained here. Where survival is the endpoint, the PubChem record calls one and a half times the control and up active, and a quarter to a half above the control has no call in these data; cut-offs in other NCI protocols can differ.
# Test system: L1210 leukemia ip in BDF1 mice, survival T/C
# Assay: NCI In Vivo Anticancer Drug Screen. Data for tumor model L1210 Leukemia (intraperitoneal) in B6D2F1 (BDF1) mice
# Conditions: T/C endpoint: mean survival time, higher T/C = longer survival
structure (smiles),measurement,setting,value
O=NN(CCCl)C(=O)NC1CC2CCC1C2 (centres undefined),survivor count,"dose: 2.08 mg/kg/injection, schedule: Q#B X Z (ip), vehicle: other",4 of 6
same,T/C,"dose: 3.1 mg/kg/injection, schedule: Q01DX015 (ip), vehicle: other",142 % of control
same,T/C,"dose: 4.0 mg/kg/injection, schedule: Q01DX005 (ip), vehicle: carboxymethylcellulose (CMC)",137 % of control
same,T/C,"dose: 4.0 mg/kg/injection, schedule: Q01DX009 (ip), vehicle: carboxymethylcellulose (CMC)",125 % of control
same,survivor count,"dose: 4.16 mg/kg/injection, schedule: Q#B X Z (ip), vehicle: other",4 of 6
same,T/C,"dose: 4.9 mg/kg/injection, schedule: Q01DX015 (ip), vehicle: other",136 % of control
same,T/C,"dose: 6.2 mg/kg/injection, schedule: Q02DX008 (ip), vehicle: other",127 and 140 % of control
same,T/C,"dose: 6.25 mg/kg/injection, schedule: Q01DX009 (oral), vehicle: carboxymethylcellulose (CMC)",127 % of control
same,survivor count,"dose: 8.0 mg/kg/injection, schedule: Q01DX005 (ip), vehicle: carboxymethylcellulose (CMC)",0 of 10
same,T/C,"dose: 10.0 mg/kg/injection, schedule: Q## X032 (ip), vehicle: other",130 % of control
same,T/C,"dose: 12.5 mg/kg/injection, schedule: Q01DX001 (im), vehicle: other",137 % of control
same,T/C,"dose: 12.5 mg/kg/injection, schedule: Q01DX001 (ip), vehicle: other",137 % of control
same,T/C,"dose: 12.5 mg/kg/injection, schedule: Q01DX001 (iv), vehicle: other",143 % of control
same,T/C,"dose: 12.5 mg/kg/injection, schedule: Q01DX001 (oral), vehicle: other",135 % of control
same,T/C,"dose: 14.5 mg/kg/injection, schedule: Q01DX001 (ip), vehicle: other",128 and 131 % of control
same,T/C,"dose: 18.0 mg/kg/injection, schedule: Q01DX001 (ip), vehicle: carboxymethylcellulose (CMC)",141 and 142 % of control
same,T/C,"dose: 23.0 mg/kg/injection, schedule: Q## X032 (ip), vehicle: other",132 % of control
same,T/C,"dose: 25.0 mg/kg/injection, schedule: Q01DX001 (iv), vehicle: other",143 % of control
same,T/C,"dose: 26.0 mg/kg/injection, schedule: Q01DX001 (ip), vehicle: other, evaluated on day 45",391 and 534 % of control
same,T/C,"dose: 26.0 mg/kg/injection, schedule: Q01DX001 (ip), vehicle: other, evaluated on day 46",545 and 645 % of control
same,T/C,"dose: 32.0 mg/kg/injection, schedule: Q01DX009 (sc), vehicle: carboxymethylcellulose (CMC)",130 % of control
same,survivor count,"dose: 33.33 mg/kg/injection, schedule: Q#B X Z (ip), vehicle: other",3 of 6
same,T/C,"dose: 39.0 mg/kg/injection, schedule: Q01DX001 (ip), vehicle: other, evaluated on day 45",526 and 581 % of control
same,T/C,"dose: 39.0 mg/kg/injection, schedule: Q01DX001 (ip), vehicle: other, evaluated on day 46",576 and 681 % of control
same,T/C,"dose: 39.0 mg/kg/injection, schedule: Q01DX001 (ip), vehicle: other, run until all animals had died",348 % of control
same,T/C,"dose: 50.0 mg/kg/injection, schedule: Q01DX017 (ip), vehicle: carboxymethylcellulose (CMC)",137 % of control
same,T/C,"dose: 50.0 mg/kg/injection, schedule: Q03DX Z (ip), vehicle: other",134 % of control
same,T/C,"dose: 58.0 mg/kg/injection, schedule: Q01DX001 (ip), vehicle: other, evaluated on day 45",494 and 527 % of control
same,T/C,"dose: 58.0 mg/kg/injection, schedule: Q01DX001 (ip), vehicle: other, evaluated on day 46",679 and 783 % of control
same,T/C,"dose: 58.0 mg/kg/injection, schedule: Q01DX001 (ip), vehicle: other, run until all animals had died","95, 348, 355 % of control"
same,T/C,"dose: 64.0 mg/kg/injection, schedule: Q01DX009 (sc), vehicle: carboxymethylcellulose (CMC)",130 % of control
same,survivor count,"dose: 66.66 mg/kg/injection, schedule: Q#B X Z (ip), vehicle: other",0 of 6
same,T/C,"dose: 87.0 mg/kg/injection, schedule: Q01DX001 (ip), vehicle: other, evaluated on day 45",321 and 417 % of control
same,T/C,"dose: 87.0 mg/kg/injection, schedule: Q01DX001 (ip), vehicle: other, evaluated on day 46",357 and 676 % of control
same,T/C,"dose: 87.0 mg/kg/injection, schedule: Q01DX001 (ip), vehicle: other, run until all animals had died",283 % of control
same,T/C,"dose: 100.0 mg/kg/injection, schedule: Q01DX001 (ip), vehicle: other",128 % of control
same,T/C,"dose: 100.0 mg/kg/injection, schedule: Q01DX005 (oral), vehicle: carboxymethylcellulose (CMC)",144 % of control
same,survivor count,"dose: 100.0 mg/kg/injection, schedule: Q03DX Z (ip), vehicle: other",5 of 6
same,T/C,"dose: 100.0 mg/kg/injection, schedule: Q04DX005 (ip), vehicle: carboxymethylcellulose (CMC)",125 % of control
same,survivor count,"dose: 100.0 mg/kg/injection, schedule: Q07DX Z (ip), vehicle: other",6 of 6
same,survivor count,"dose: 117.0 mg/kg/injection, schedule: Q01DX001 (oral), vehicle: other",10 of 10
same,survivor count,"dose: 128.0 mg/kg/injection, schedule: Q01DX009 (oral), vehicle: carboxymethylcellulose (CMC)",7 of 10
same,survivor count,"dose: 128.0 mg/kg/injection, schedule: Q04DX003 (ip), vehicle: carboxymethylcellulose (CMC)",10 of 10
same,T/C,"dose: 130.0 mg/kg/injection, schedule: Q01DX001 (ip), vehicle: other, evaluated on day 45",108 and 184 % of control
same,T/C,"dose: 130.0 mg/kg/injection, schedule: Q01DX001 (ip), vehicle: other, evaluated on day 46",113 and 125 % of control
same,survivor count,"dose: 139.0 mg/kg/injection, schedule: Q01DX001 (ip), vehicle: carboxymethylcellulose (CMC)",9 of 10
same,survivor count,"dose: 200.0 mg/kg/injection, schedule: Q01DX001 (ip), vehicle: other",4 of 6
same,survivor count,"dose: 200.0 mg/kg/injection, schedule: Q01DX001 (ip), vehicle: saline",4 of 10
same,survivor count,"dose: 200.0 mg/kg/injection, schedule: Q01DX001 (oral), vehicle: other",5 of 6
same,T/C,"dose: 200.0 mg/kg/injection, schedule: Q01DX001 (sc), vehicle: other",128 % of control
same,survivor count,"dose: 200.0 mg/kg/injection, schedule: Q03DX Z (ip), vehicle: other",5 of 6
same,survivor count,"dose: 200.0 mg/kg/injection, schedule: Q07DX Z (ip), vehicle: other",6 of 6
same,survivor count,"dose: 256.0 mg/kg/injection, schedule: Q01DX001 (ip), vehicle: carboxymethylcellulose (CMC)",9 of 10
same,survivor count,"dose: 256.0 mg/kg/injection, schedule: Q01DX009 (oral), vehicle: carboxymethylcellulose (CMC)",6 of 10
same,survivor count,"dose: 256.0 mg/kg/injection, schedule: Q04DX003 (ip), vehicle: carboxymethylcellulose (CMC)",8 of 10
same,survivor count,"dose: 375.0 mg/kg/injection, schedule: Q01DX001 (ip), vehicle: carboxymethylcellulose (CMC)",2 of 6
same,survivor count,"dose: 400.0 mg/kg/injection, schedule: Q01DX001 (im), vehicle: other",3 of 6
same,survivor count,"dose: 400.0 mg/kg/injection, schedule: Q01DX001 (ip), vehicle: other",0 of 6
same,survivor count,"dose: 400.0 mg/kg/injection, schedule: Q01DX001 (iv), vehicle: other",1 of 6
same,survivor count,"dose: 400.0 mg/kg/injection, schedule: Q01DX001 (oral), vehicle: other",6 of 6
same,survivor count,"dose: 400.0 mg/kg/injection, schedule: Q01DX001 (sc), vehicle: other",5 of 6
same,survivor count,"dose: 400.0 mg/kg/injection, schedule: Q03DX Z (ip), vehicle: other",0 of 6
same,survivor count,"dose: 400.0 mg/kg/injection, schedule: Q07DX Z (ip), vehicle: other",0 of 6
same,survivor count,"dose: 512.0 mg/kg/injection, schedule: Q01DX001 (oral), vehicle: carboxymethylcellulose (CMC)",9 of 10
same,survivor count,"dose: 800.0 mg/kg/injection, schedule: Q01DX001 (im), vehicle: other",1 of 6
same,survivor count,"dose: 800.0 mg/kg/injection, schedule: Q01DX001 (ip), vehicle: other",0 of 6 and 6 of 6
same,survivor count,"dose: 800.0 mg/kg/injection, schedule: Q01DX001 (oral), vehicle: other",2 of 6
same,survivor count,"dose: 800.0 mg/kg/injection, schedule: Q01DX001 (sc), vehicle: other",3 of 6
same,survivor count,"dose: 800.0 mg/kg/injection, schedule: Q03DX Z (ip), vehicle: other",0 of 6
same,survivor count,"dose: 800.0 mg/kg/injection, schedule: Q07DX Z (ip), vehicle: other",0 of 6
same,T/C,"dose: 250.0 micrograms/kg/injection, schedule: Q03HX008 (ip), vehicle: carboxymethylcellulose (CMC)",139 % of control
same,T/C,"dose: 2000.0 micrograms/kg/injection, schedule: Q03HX024 (ip), vehicle: carboxymethylcellulose (CMC)",127 % of control
same,survivor count,"dose: 4000.0 micrograms/kg/injection, schedule: Q03HX008 (ip), vehicle: carboxymethylcellulose (CMC)",6 of 10
same,survivor count,"dose: 4000.0 micrograms/kg/injection, schedule: Q03HX024 (ip), vehicle: carboxymethylcellulose (CMC)",10 of 10
